According to the supplement of paper PMC10663445:
Counter-ions that a name gives are not always drawn. The list shows a part of the results. Repeats are few or missing, and single values can be far off.

Test system: hsa-miR-132-3p
Assay: miR-132-3p level in NGN2-iNs after compound treatment (TMM-normalised, ComBat batch-corrected) (batch-corrected normalised expression (arbitrary units)); higher = higher miR-132-3p expression
Conditions: 10 µM; 24 h; human iPSC-derived NGN2 neurons (BR43)

SMILES | miR-132-3p level in NGN2-iNs
CO[C@H]1/C=C/O[C@@]2(C)Oc3c(C)c(O)c4c(O)c(c5c(nc6cc(C)ccn65)c4c3C2=O)NC(=O)/C(C)=C\C=C\[C@H](C)[C@H](O)[C@@H](C)[C@@H](O)[C@@H](C)[C@H](OC(C)=O)[C@@H]1C [Rifaximin] | -0.892
Clc1cccc(Cl)c1NC1=NCCN1 [Clonidine HCl] | -0.398
Cc1csc(-c2nnc(Nc3ccc(Oc4ncccc4-c4ccnc(N)n4)cc3)c3ccccc23)c1 | -0.116
Nc1nc2c(ncn2COC(CO)CO)c(=O)[nH]1 [Ganciclovir] | 0.487
CNCCc1ccccn1 [Betahistine 2HCl] | -0.62
CC(C)Oc1ccc(-c2cnc3c(-c4ccnc5ccccc45)cnn3c2)cc1 | -0.407
NCCCCCC(=O)O [(6-)ε-Aminocaproic acid] | 0.542
CC(C)CCNC(=O)[C@H](CC(C)C)NC(=O)[C@H]1O[C@@H]1C(=O)O [Loxistatin Acid (E-64C)] | 0.0243
COc1c(C)cnc(Cn2cnc3c(Cl)nc(N)nc32)c1C | -0.738
COc1ccc2c(Oc3ccc(NC(=O)c4c(C)n(CC(C)(C)O)n(-c5ccccc5)c4=O)nc3)ccnc2c1 | 0.775
Nc1nccc(Oc2ccc(NC(=O)c3c[nH]cc(-c4ccc(F)cc4)c3=O)cc2F)c1Cl | -0.0246
Cc1nc2c(-c3cnc(N)nc3)nc(N3CCOCC3)nc2n1C(C)C | 0.29
NC(=O)Nc1cc(-c2cccc(F)c2)sc1C(=O)N[C@H]1CCCNC1 | -2.85
O=C(c1ccc(F)cc1)C1CCN(CCn2c(=O)[nH]c3ccccc3c2=O)CC1 [Ketanserin] | -0.801
CC(C)c1ccccc1Cc1cc(C(=O)Nc2ccc(S(=O)(=O)c3ccccc3C(C)(C)C)cc2)c(O)c(O)c1O | 0.768
O=C(O)CCc1ccc(NCc2cccc(Oc3ccccc3)c2)cc1 | -0.528
O=C1NCC2(CCN(CCc3ccccc3)CC2)O1 [Fenspiride HCl] | -0.567
Clc1ccc2c(c1)CCc1cccnc1C2=C1CCNCC1 [Desloratadine] | 1.78
CCS(=O)(=O)N1CC(CC#N)(n2cc(-c3ncnc4[nH]ccc34)cn2)C1 | -1.65
COc1cc2c(cc1OC)[C@@H]1Cc3ccc(OC)c(OC)c3CN1CC2 [Rotundine] | -0.871
Cc1ccc(C)c(OCCCC(C)(C)C(=O)O)c1 [Gemfibrozil] | -1.06
O=C(O)C[C@H](O)C[C@H](O)/C=C/c1c(C2CC2)nc2ccccc2c1-c1ccc(F)cc1 [Pitavastatin Calcium] | -1.96
C[C@H](NC(=O)CCc1nc2ccccc2c(=O)[nH]1)c1ccccc1 | -0.454
NCC(=O)CCC(=O)O [5-Aminolevulinic acid HCl] | 1.29

As entered above.
CNCCc1ccccn1 [Betahistine 2HCl] – miR-132-3p level in NGN2-iNs: -0.62
O=C(c1ccc(F)cc1)C1CCN(CCn2c(=O)[nH]c3ccccc3c2=O)CC1 [Ketanserin] – miR-132-3p level in NGN2-iNs: -0.801
